PubChem BioAssay AID602196 | INSERM – 2012
The deposit covers about 23,000 reagents; below is a part drawn at random. Of all reagents, 455 (2%) got an active call. 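Active includes both protection and sensitisation; some change values fall well beyond the stated -50 to +50 range.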 Further read-outs or replicates are left out here. Not stated in the record: the amount of reagent.

- Screen: 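Knock-downs that protect lung cancer cells from cisplatin or sensitise them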
- Cell system: human A549 lung cancer cells
- Knock-down reagent: siRNA pair against human genes
- Duration: 48 h transfection before cisplatin; time from cisplatin to read-out not stated
- Challenge: cisplatin at a dose killing half of control-siRNA cells; exact dose and duration not given
- Detection: 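Shift in cisplatin death relative to control siRNA, from -50 (all cells die) to +50 (no cells die); siRNAs harmful on their own scored 0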
- Scale: two-siRNA summed score (-2 to +2): higher = both siRNAs protect from cisplatin killing; -2 means both sensitise; mean protection from cisplatin (shift in death): higher = protection from cisplatin killing
- Active means: 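siRNAs harmful alone (LDH or WST-1) get 0; others get +1 for less and -1 for more cisplatin killing; genes are active when the two siRNAs give the same sign, summing to ±2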
- Meaning of the calls: active = both siRNAs shift cisplatin killing the same way; inactive = no consistent shift, or siRNA harmful alone

For OR52B4 (olfactory receptor family 52 subfamily B member 4) [SID131504656], the values are two-siRNA summed score (-2 to +2) = 0; mean protection from cisplatin (shift in death) (%) = -4.8; inactive.
Against INTS8 (integrator complex subunit 8) [SID131505234], the entry reads two-siRNA summed score (-2 to +2) = 0; mean protection from cisplatin (shift in death) (%) = -3.5; inactive.
Depletion of LOC400353 [SID131515713] resulted in: two-siRNA summed score (-2 to +2) = 0; mean protection from cisplatin (shift in death) (%) = 9.6; inactive.
Silencing of FBXO27 (F-box protein 27) [SID131506823] gave: two-siRNA summed score (-2 to +2) = 0; mean protection from cisplatin (shift in death) (%) = -0.9; inactive.
Silencing of BTN2A2 (butyrophilin subfamily 2 member A2) [SID131504280] gave: two-siRNA summed score (-2 to +2) = 0; mean protection from cisplatin (shift in death) (%) = -5.9; inactive.
Depletion of OSMR (oncostatin M receptor) [SID131511799] came out at: two-siRNA summed score (-2 to +2) = 0; mean protection from cisplatin (shift in death) (%) = 4.8; inactive.
PLAAT3 (phospholipase A and acyltransferase 3) [SID131500475] showed two-siRNA summed score (-2 to +2) = -1; mean protection from cisplatin (shift in death) (%) = -26.3; inactive.
Against EBPL (EBP like) [SID131519052] the deposit lists two-siRNA summed score (-2 to +2) = 1; mean protection from cisplatin (shift in death) (%) = 1.7; inactive.
Against ZBTB45 (zinc finger and BTB domain containing 45) [SID131511157], the values are two-siRNA summed score (-2 to +2) = 0; mean protection from cisplatin (shift in death) (%) = 4; inactive.
ERRFI1 (ERBB receptor feedback inhibitor 1) [SID131510213] gave two-siRNA summed score (-2 to +2) = 0; mean protection from cisplatin (shift in death) (%) = 3; inactive.
With knock-down of PDCD4 (programmed cell death 4) [SID131501180], the screen gave two-siRNA summed score (-2 to +2) = -1; mean protection from cisplatin (shift in death) (%) = -11.7; inactive.
GRIN2A (glutamate ionotropic receptor NMDA type subunit 2A) [SID131519202] gave two-siRNA summed score (-2 to +2) = 1; mean protection from cisplatin (shift in death) (%) = 3.7; inactive.
Against REPIN1 (replication initiator 1) [SID131521744] the deposit lists two-siRNA summed score (-2 to +2) = 1; mean protection from cisplatin (shift in death) (%) = 14.7; inactive.
ANAPC11 (anaphase promoting complex subunit 11) [SID131504625] gave two-siRNA summed score (-2 to +2) = 0; mean protection from cisplatin (shift in death) (%) = -4.9; inactive.
Knock-down of MPPED1 (metallophosphoesterase domain containing 1) [SID131513492] came out at: two-siRNA summed score (-2 to +2) = 0; mean protection from cisplatin (shift in death) (%) = 6.6; inactive.
With knock-down of NUDT16L1 (nudix hydrolase 16 like 1) [SID131512604] the results were two-siRNA summed score (-2 to +2) = 0; mean protection from cisplatin (shift in death) (%) = 5.7; inactive.
With knock-down of PHYKPL (5-phosphohydroxy-L-lysine phospho-lyase) [SID131518782], the screen gave two-siRNA summed score (-2 to +2) = 0; mean protection from cisplatin (shift in death) (%) = 27.2; inactive.
With knock-down of GTSCR1 [SID131510741] the results were two-siRNA summed score (-2 to +2) = 0; mean protection from cisplatin (shift in death) (%) = 3.6; inactive.
For BET1L (Bet1 golgi vesicular membrane trafficking protein like) [SID131518387], the entry reads two-siRNA summed score (-2 to +2) = 0; mean protection from cisplatin (shift in death) (%) = 19; inactive.
Silencing of GGNBP2 (gametogenetin binding protein 2) [SID131505915] resulted in: two-siRNA summed score (-2 to +2) = 0; mean protection from cisplatin (shift in death) (%) = -2.4; inactive.
Against NLGN4Y (neuroligin 4 Y-linked) [SID131504738], the values are two-siRNA summed score (-2 to +2) = 0; mean protection from cisplatin (shift in death) (%) = -4.6; inactive.
Depletion of IRS4 (insulin receptor substrate 4) [SID131506133] resulted in: two-siRNA summed score (-2 to +2) = 0; mean protection from cisplatin (shift in death) (%) = -2; inactive.
Knock-down of ETV7 (ETS variant transcription factor 7) [SID131503394] came out at: two-siRNA summed score (-2 to +2) = 0; mean protection from cisplatin (shift in death) (%) = -10.4; inactive.
Depletion of DENND3 (DENN domain containing 3) [SID131521288] came out at: two-siRNA summed score (-2 to +2) = 1; mean protection from cisplatin (shift in death) (%) = 12.9; inactive.
For PPM1F (protein phosphatase, Mg2+/Mn2+ dependent 1F) [SID131502338], the entry reads two-siRNA summed score (-2 to +2) = -1; mean protection from cisplatin (shift in death) (%) = -3.3; inactive.
LOC441092 [SID131512254] gave two-siRNA summed score (-2 to +2) = 0; mean protection from cisplatin (shift in death) (%) = 5.3; inactive.
Depletion of LOC388381 [SID131504605] resulted in: two-siRNA summed score (-2 to +2) = 0; mean protection from cisplatin (shift in death) (%) = -4.9; inactive.
Against LOC153027 [SID131514335], the entry reads two-siRNA summed score (-2 to +2) = 0; mean protection from cisplatin (shift in death) (%) = 7.7; inactive.
USH1G (USH1 protein network component sans) [SID131507062] showed two-siRNA summed score (-2 to +2) = 0; mean protection from cisplatin (shift in death) (%) = -0.6; inactive.
USP29 (ubiquitin specific peptidase 29) [SID131512938] scored two-siRNA summed score (-2 to +2) = 0; mean protection from cisplatin (shift in death) (%) = 6; inactive.
Depletion of LOC401136 [SID131513921] gave: two-siRNA summed score (-2 to +2) = 0; mean protection from cisplatin (shift in death) (%) = 7.2; inactive.
Knock-down of MYBBP1A (MYB binding protein 1a) [SID131519230] came out at: two-siRNA summed score (-2 to +2) = 1; mean protection from cisplatin (shift in death) (%) = 3.9; inactive.
After knock-down of SOD2 (superoxide dismutase 2) [SID131511579], the record shows two-siRNA summed score (-2 to +2) = 0; mean protection from cisplatin (shift in death) (%) = 4.5; inactive.
Silencing of MGC45731 [SID131512382] gave: two-siRNA summed score (-2 to +2) = 0; mean protection from cisplatin (shift in death) (%) = 5.4; inactive.
After knock-down of GLP2R (glucagon like peptide 2 receptor) [SID131501400] the results were two-siRNA summed score (-2 to +2) = -1; mean protection from cisplatin (shift in death) (%) = -10; inactive.
After knock-down of ABCG4 (ATP binding cassette subfamily G member 4) [SID131512566], the screen gave two-siRNA summed score (-2 to +2) = 0; mean protection from cisplatin (shift in death) (%) = 5.6; inactive.
Against FUT3 (fucosyltransferase 3 (Lewis blood group)) [SID131511704], the entry reads two-siRNA summed score (-2 to +2) = 0; mean protection from cisplatin (shift in death) (%) = 4.6; inactive.
GORASP2 (golgi reassembly stacking protein 2) [SID131502855] showed two-siRNA summed score (-2 to +2) = 0; mean protection from cisplatin (shift in death) (%) = -22.5; inactive.
After knock-down of RPS13 (ribosomal protein S13) [SID131518713], the screen gave two-siRNA summed score (-2 to +2) = 0; mean protection from cisplatin (shift in death) (%) = 25; inactive.
SEC22A (SEC22 homolog A, vesicle trafficking protein) [SID131504004] gave two-siRNA summed score (-2 to +2) = 0; mean protection from cisplatin (shift in death) (%) = -6.8; inactive.

Part of the list above in another layout:
LOC153027 [SID131514335]
- two-siRNA summed score (-2 to +2): 0
- mean protection from cisplatin (shift in death) (%): 7.7
- outcome: inactive

USH1G (USH1 protein network component sans) [SID131507062]
- two-siRNA summed score (-2 to +2): 0
- mean protection from cisplatin (shift in death) (%): -0.6
- outcome: inactive

USP29 (ubiquitin specific peptidase 29) [SID131512938]
- two-siRNA summed score (-2 to +2): 0
- mean protection from cisplatin (shift in death) (%): 6
- outcome: inactive
